Laboratory results reported in paper PMC9260213.
These are yes or no findings as the source states them, for the method shown. Some binding calls cover weakened binding; strength is not graded here.

Assays:
[1] = target: T1, murine Elp6 (subunit of mElp456) (Mus musculus) (UniProt Q8BK75); experiment: SEC; three subunits co-expressed and purified as one complex (human, murine: Hi-5 cells, IgG agarose via Protein A on Elp6, TEV cleavage); gel filtration on Superose 6 Increase 10/300 GL by the legend (S200 Increase 10/300 GL by the methods), 20 mM HEPES pH 7.5, 100 mM NaCl, 2 mM MgCl2, 5 mM DTT; eluted at ~220 kDa; production of the yeast complex not told; both purified
T1 sequence: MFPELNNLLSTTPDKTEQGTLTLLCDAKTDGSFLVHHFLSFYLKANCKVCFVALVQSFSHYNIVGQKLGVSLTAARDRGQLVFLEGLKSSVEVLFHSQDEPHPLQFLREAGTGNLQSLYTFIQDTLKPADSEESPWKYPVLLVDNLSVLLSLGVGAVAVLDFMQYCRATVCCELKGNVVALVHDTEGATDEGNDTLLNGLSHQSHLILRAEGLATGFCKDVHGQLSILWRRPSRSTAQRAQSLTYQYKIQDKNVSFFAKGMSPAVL

[2] = target: T1, murine Elp6 (subunit of mElp456) (Mus musculus); experiment: cryo-EM structure; purified Elp456 subcomplexes, single particle analysis, C2 symmetry; homology models (template yeast Elp456) fitted into the maps; both purified
[3] = target: T2, murine Elp5 (subunit of mElp456) (Mus musculus) (UniProt Q99L85); experiment: as above
T2 sequence: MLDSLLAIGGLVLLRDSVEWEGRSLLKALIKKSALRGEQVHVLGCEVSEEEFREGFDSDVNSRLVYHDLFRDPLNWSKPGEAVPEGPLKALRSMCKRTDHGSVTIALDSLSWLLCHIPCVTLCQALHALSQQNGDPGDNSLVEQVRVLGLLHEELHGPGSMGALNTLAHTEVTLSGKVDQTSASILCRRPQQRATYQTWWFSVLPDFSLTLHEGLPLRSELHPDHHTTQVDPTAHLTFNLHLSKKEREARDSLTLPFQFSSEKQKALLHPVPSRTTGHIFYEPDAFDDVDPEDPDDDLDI

[4] = target: T3, murine Elp6 L118W (Mus musculus) (UniProt Q8BK75); experiment: co-purification; mElp456 variants co-expressed in Hi-5 cells, captured from lysate on IgG agarose via Protein A on Elp6, TEV cleavage, gel filtration
T3 sequence: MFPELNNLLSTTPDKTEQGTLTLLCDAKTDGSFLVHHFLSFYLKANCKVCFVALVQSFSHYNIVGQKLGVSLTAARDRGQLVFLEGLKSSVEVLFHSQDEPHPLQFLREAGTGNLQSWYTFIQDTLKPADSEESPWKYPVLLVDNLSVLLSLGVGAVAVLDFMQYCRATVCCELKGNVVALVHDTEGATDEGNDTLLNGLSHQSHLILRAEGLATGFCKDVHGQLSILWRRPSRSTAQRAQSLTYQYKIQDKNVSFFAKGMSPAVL

[5] = target: T4, murine Elp6 L126Q (Mus musculus) (UniProt Q8BK75); experiment: as above
T4 sequence: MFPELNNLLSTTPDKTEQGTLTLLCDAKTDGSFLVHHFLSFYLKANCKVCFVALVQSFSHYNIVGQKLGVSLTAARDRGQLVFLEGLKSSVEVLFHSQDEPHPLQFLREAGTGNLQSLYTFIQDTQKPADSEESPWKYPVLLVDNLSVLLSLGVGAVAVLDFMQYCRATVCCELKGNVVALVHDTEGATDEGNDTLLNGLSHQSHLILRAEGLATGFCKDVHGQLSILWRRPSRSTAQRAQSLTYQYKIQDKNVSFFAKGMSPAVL

[6] = target: T5, human Elp6 (subunit of hElp456) (Homo sapiens) (UniProt Q0PNE2); experiment: SEC; three subunits co-expressed and purified as one complex (human, murine: Hi-5 cells, IgG agarose via Protein A on Elp6, TEV cleavage); gel filtration on Superose 6 Increase 10/300 GL by the legend (S200 Increase 10/300 GL by the methods), 20 mM HEPES pH 7.5, 100 mM NaCl, 2 mM MgCl2, 5 mM DTT; eluted at ~220 kDa; production of the yeast complex not told; both purified
T5 sequence: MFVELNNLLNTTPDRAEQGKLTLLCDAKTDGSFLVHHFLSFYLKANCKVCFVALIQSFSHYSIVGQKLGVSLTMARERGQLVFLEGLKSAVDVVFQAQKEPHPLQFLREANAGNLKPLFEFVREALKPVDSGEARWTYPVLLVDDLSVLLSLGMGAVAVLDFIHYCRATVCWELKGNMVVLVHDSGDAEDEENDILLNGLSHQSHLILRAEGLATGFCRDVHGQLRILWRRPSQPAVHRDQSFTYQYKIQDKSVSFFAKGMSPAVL

[7] = target: T5, human Elp6 (subunit of hElp456) (Homo sapiens); experiment: cryo-EM structure; purified Elp456 subcomplexes, single particle analysis, C2 symmetry; homology models (template yeast Elp456) fitted into the maps; both purified
[8] = target: T6, human Elp5 (subunit of hElp456) (Homo sapiens) (UniProt Q8TE02); experiment: as above
T6 sequence: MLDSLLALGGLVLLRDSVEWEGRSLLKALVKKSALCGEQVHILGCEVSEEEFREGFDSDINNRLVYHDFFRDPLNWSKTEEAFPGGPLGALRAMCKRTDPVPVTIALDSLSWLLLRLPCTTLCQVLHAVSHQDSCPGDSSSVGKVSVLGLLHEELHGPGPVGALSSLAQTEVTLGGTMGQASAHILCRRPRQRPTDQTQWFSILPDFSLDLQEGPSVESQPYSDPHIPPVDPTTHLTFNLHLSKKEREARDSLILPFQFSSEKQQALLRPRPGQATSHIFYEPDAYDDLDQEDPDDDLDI

[9] = target: T7, yeast Elp6 (subunit of yElp456) (yeast) (UniProt Q04868); experiment: SEC; three subunits co-expressed and purified as one complex (human, murine: Hi-5 cells, IgG agarose via Protein A on Elp6, TEV cleavage); gel filtration on Superose 6 Increase 10/300 GL by the legend (S200 Increase 10/300 GL by the methods), 20 mM HEPES pH 7.5, 100 mM NaCl, 2 mM MgCl2, 5 mM DTT; eluted at ~220 kDa; production of the yeast complex not told; both purified
T7 sequence: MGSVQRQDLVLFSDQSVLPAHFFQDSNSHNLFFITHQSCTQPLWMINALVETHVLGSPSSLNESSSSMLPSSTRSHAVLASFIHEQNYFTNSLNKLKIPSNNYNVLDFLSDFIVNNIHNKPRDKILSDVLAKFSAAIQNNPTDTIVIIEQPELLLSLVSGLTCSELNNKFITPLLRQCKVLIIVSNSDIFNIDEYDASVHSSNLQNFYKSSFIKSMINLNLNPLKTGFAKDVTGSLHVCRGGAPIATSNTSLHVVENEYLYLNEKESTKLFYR

Measured: binding

B1: murine Elp4 (subunit of mElp456) (protein, UniProt Q9ER73 1-422)
chain: MAAADTCGAGTLSSRSVASEAGQGGTSSFQRKGKASGGPGGGPRLLSIAGTRPSVRNGQLLVSTGLPALDQLLGGGLAVGTLLLIEEDKYNIYSPLLFKYFMAEGIINGHTLLVASAKENPAKILQELPAPLLDDNSKKELEDVHSAKTPEPNVNMKIAWRYQLQPKMEVGPVSSSRFGHYYDLSKRIPWELLQSSKWHGFFLPEHISPDLKGESCFLSCGYMRLLEFIQKSVYAEGFDGANPQKKQKNILRIGIQNLGSPLWGDDICCKENCDNNHRLTKFLYILRGLLRSSLSACIITMPAHLVQNKSITTRVRNLSDTVVGLESFIGSERETNPLYKDYHGLIHIRKIPRLNNLTCDESDVKDLAFKLKRKLFTIERLHLPPDLSDTVGRSSKQDLAASTARLGAGCSSMAEGKKHLDF
binds: [1] | [2] | [3] | [4] | [5]

B2: human Elp4 (subunit of hElp456) (protein, UniProt Q96EB1 1-424)
chain: MAAVATCGSVAASTGSAVATASKSNVTSFQRRGPRASVTNDSGPRLVSIAGTRPSVRNGQLLVSTGLPALDQLLGGGLAVGTVLLIEEDKYNIYSPLLFKYFLAEGIVNGHTLLVASAKEDPANILQELPAPLLDDKCKKEFDEDVYNHKTPESNIKMKIAWRYQLLPKMEIGPVSSSRFGHYYDASKRMPQELIEASNWHGFFLPEKISSTLKVEPCSLTPGYTKLLQFIQNIIYEEGFDGSNPQKKQRNILRIGIQNLGSPLWGDDICCAENGGNSHSLTKFLYVLRGLLRTSLSACIITMPTHLIQNKAIIARVTTLSDVVVGLESFIGSERETNPLYKDYHGLIHIRQIPRLNNLICDESDVKDLAFKLKRKLFTIERLHLPPDLSDTVSRSSKMDLAESAKRLGPGCGMMAGGKKHLDF
binds: [6] | [7] | [8]

B3: yeast Elp5 (subunit of yElp456) (protein, UniProt P38874 1-270)
chain: MASSSHNPVILLKRILSLTESSPFILCLDSIAQTSYKLIQEFVHQSKSKGNEYPIVYISFETVNKPSYCTQFIDATQMDFVHLVKQIISYLPAATATQAKKHMVIIDSLNYISTEYITRFLSEIASPHCTMVATYHKDIKDENRTVIPDWNNNYPDKLTLLQFMATTIVDIDVVLTGTLDTEEVSELLNEFRIPRGLNNDIFQLRLVNKRKSGRSLEYDFIVNSNTHEYELLSTTKQEEESSSNGLETPEMLQGLTTFNLGTSNKQKLAK
binds: [9]
